Measurements reported in PubChem BioAssay AID504786 (Drosophila RNAi Screening Center, 2011)
The deposit covers about 21,000 reagents; this is an unselected part of those with a known target gene and a result. 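Primary screen; positive scores mean lost reporter signal, so the sign may be inverted from the usual convention.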 Names joined by + are all predicted targets of the reagent. Further read-outs or replicates are left out here.

Test: 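Fly genes required for HIF-dependent transcription when hypoxia is mimicked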 (primary screen)
Cell system: Drosophila S2 cells with a stable HIF luciferase reporter
Knock-down reagent: long dsRNA against Drosophila genes, about 0.2 µg dsRNA per well of a 384-well plate
Timing: three days of knock-down, then 20 h of DFO before reading
Treatment: desferrioxamine (DFO) at 100 µM, an iron chelator that mimics hypoxia, for 20 h
Detection: 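Firefly luciferase driven by the mouse ldh-a hypoxia-response element, measured after 20 h of 100 µM DFO; z-scores per plate, higher means more signal lost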
Scale: z-score: higher = stronger loss of HIF reporter signal

z-score, replicate 1	gene	DRSC id
2.2	eIF4E4 (eukaryotic translation initiation factor 4E4)	DRSC09701
5.2	RpL32 (Ribosomal protein L32)	DRSC16835
-0.3	EMRE (Essential MCU regulator)	DRSC06686
-0.3	CG5921	DRSC17431
-0.3	CG5921	DRSC18390
-0.6	Sirt1 (Sirtuin 1)	DRSC03435
-0.1	CG6034	DRSC10572
-0.4	pcs (parcas)	DRSC07042
4.5	eEF1gamma (eukaryotic translation elongation factor 1 gamma)	DRSC16659
-0.1	Pi3K92E (Phosphatidylinositol 3-kinase 92E)	DRSC16788
-0.3	Acp76A (Accessory gland protein 76A)	DRSC09665
-0.3	rad (retired record)	DRSC19687
-0.3	Bap111 (Brahma associated protein 111kD)	DRSC18419
-0.1	Mob2	DRSC09117
-0.4	Mob2	DRSC09119
-0.4	Mob2	DRSC09856
0	CG8326	DRSC20103
0.3	mkg-p + Tpt	DRSC10777
-0.2	Hs3st-A (Heparan sulfate 3-O sulfotransferase-A)	DRSC06507
-0.5	Hs3st-A (Heparan sulfate 3-O sulfotransferase-A)	DRSC06508
-0.1	Hs3st-A (Heparan sulfate 3-O sulfotransferase-A)	DRSC06509
5	CG15097	DRSC06526
-0.4	CG13193	DRSC06318
-0.3	Spn28Dc (Serpin 28Dc)	DRSC03029
-0.4	Pop2	DRSC10537

Reprinted from the entries so far (2 entries):
z-score, replicate 1	gene	DRSC id
-0.4	Mob2	DRSC09856
0	CG8326	DRSC20103

Continued:
z-score, replicate 1	gene	DRSC id
-0.3	CG17030	DRSC08503
-0.3	Nurf-38 (Nucleosome remodeling factor - 38kD)	DRSC04629
-0.1	CG9631	DRSC14137
0.6	Abcd3 (ATP binding cassette subfamily D member 3)	DRSC19488
-0.2	CG15034	DRSC17966
-0.2	CG8910	DRSC07414
-0.3	CG13043	DRSC09924
-0.2	WDR79 (WD repeat domain 79)	DRSC03159
-0.3	twit (target of wit)	DRSC03210
-0.1	CG13955	DRSC06443
-0.3	Cyp6a14 (retired record)	DRSC07376
-0.3	CG16898	DRSC06635
0.1	Srrm234 (Serine-arginine repetitive matrix 2/3/4)	DRSC07955
-0.3	Srrm234 (Serine-arginine repetitive matrix 2/3/4)	DRSC08606
-0.2	Mst84Dc (Male-specific RNA 84Dc)	DRSC12599
-0.1	nullo	DRSC18807
-0.3	CG13029	DRSC09909
-0.1	CG31010	DRSC14006
-0.3	Usp12-46 (Ubiquitin-specific protease 12/46)	DRSC16175
-0.4	CG9776	DRSC12127
0	CG10799	DRSC06002
-0.3	CG1941	DRSC06802
-0.1	CG8611	DRSC19340
-0.3	CG32793	DRSC18145
-0.4	CG32793	DRSC18194
-0.6	xmas	DRSC21306
0.1	CG2736	DRSC04314
0.2	mEFTs (mitochondrial translation elongation factor Ts)	DRSC02953
-0.2	CG11825	DRSC06090
-0.1	rg (rugose)	DRSC17377
-0.1	rg (rugose)	DRSC17726
-0.3	rg (rugose)	DRSC18049
